This is one part of the list. Most values lie at the level of the controls, where differences are scatter.

The chains behind the UniProt entries cited, without tags or fusion partners. Where a name states a change or a piece, a line headed by the entry shows the natural chain unless it says otherwise.
UniProt P00505: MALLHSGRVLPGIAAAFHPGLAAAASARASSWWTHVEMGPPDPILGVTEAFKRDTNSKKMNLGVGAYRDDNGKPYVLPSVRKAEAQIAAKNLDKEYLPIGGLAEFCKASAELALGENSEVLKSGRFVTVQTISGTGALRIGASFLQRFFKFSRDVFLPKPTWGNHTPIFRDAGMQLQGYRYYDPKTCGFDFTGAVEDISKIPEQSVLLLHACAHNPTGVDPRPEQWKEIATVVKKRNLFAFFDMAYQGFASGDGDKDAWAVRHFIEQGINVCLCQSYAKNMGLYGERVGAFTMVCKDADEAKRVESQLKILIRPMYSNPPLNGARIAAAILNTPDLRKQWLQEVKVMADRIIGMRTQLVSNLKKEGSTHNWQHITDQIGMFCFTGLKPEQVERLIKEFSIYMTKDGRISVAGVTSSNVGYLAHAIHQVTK
UniProt P0CG47, whole entry, looked up: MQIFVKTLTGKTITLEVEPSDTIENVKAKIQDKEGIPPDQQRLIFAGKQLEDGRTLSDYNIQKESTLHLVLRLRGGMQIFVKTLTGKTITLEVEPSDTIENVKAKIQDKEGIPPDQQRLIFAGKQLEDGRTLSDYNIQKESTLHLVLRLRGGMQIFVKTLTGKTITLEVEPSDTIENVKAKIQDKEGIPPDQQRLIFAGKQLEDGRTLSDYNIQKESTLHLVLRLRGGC
UniProt P04792, whole entry: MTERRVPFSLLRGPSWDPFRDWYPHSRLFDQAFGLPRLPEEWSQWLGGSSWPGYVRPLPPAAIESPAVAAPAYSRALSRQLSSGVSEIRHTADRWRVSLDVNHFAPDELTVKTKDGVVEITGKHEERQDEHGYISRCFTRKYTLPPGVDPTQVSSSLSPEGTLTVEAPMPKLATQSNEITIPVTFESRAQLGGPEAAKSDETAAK
UniProt P0C7V9: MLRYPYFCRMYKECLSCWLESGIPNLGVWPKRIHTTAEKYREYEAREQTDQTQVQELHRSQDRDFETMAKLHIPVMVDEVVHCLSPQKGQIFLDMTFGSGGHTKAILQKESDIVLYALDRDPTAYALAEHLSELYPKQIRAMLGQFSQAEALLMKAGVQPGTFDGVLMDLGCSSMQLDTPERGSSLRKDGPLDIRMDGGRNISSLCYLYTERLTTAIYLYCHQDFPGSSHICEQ
UniProt P07205: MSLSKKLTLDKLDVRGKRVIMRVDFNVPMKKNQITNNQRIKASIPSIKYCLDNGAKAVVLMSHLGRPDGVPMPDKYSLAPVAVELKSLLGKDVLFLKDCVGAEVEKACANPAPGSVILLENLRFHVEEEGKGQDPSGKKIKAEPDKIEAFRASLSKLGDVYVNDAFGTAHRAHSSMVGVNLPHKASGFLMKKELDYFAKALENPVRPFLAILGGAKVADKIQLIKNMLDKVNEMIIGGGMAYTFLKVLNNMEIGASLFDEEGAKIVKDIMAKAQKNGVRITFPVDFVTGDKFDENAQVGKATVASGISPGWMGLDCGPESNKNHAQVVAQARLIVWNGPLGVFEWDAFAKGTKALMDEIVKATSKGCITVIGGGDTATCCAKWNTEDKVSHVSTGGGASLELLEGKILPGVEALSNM
UniProt P00352: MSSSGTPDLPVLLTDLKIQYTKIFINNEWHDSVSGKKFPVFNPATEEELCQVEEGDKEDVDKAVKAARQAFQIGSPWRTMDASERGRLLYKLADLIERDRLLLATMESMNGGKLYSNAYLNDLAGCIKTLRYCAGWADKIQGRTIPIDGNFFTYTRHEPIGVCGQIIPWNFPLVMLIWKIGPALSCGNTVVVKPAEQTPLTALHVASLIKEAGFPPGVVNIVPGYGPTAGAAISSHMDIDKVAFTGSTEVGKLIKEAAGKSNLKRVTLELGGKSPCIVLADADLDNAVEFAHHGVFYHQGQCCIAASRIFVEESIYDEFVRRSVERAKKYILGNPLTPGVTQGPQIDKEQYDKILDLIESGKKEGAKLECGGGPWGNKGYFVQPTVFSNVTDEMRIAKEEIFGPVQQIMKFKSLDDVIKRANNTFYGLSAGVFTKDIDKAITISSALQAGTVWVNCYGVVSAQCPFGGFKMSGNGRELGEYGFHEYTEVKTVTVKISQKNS
UniProt P08754, whole entry: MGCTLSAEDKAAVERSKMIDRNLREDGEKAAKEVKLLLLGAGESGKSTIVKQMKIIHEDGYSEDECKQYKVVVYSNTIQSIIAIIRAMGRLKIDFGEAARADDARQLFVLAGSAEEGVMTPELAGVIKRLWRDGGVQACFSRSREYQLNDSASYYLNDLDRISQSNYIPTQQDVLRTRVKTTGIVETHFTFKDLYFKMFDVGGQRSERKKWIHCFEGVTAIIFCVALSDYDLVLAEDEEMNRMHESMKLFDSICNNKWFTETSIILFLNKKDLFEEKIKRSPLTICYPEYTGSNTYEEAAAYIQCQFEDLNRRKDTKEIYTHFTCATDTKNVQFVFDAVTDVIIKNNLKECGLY
UniProt P05114: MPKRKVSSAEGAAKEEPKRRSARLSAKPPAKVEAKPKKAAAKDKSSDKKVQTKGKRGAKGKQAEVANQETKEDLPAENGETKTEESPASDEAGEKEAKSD
UniProt P11441: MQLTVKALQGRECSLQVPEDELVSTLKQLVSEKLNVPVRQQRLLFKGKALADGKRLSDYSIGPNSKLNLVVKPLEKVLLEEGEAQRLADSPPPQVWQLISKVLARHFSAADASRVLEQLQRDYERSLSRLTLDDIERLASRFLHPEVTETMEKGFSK
UniProt P0DME0, whole entry: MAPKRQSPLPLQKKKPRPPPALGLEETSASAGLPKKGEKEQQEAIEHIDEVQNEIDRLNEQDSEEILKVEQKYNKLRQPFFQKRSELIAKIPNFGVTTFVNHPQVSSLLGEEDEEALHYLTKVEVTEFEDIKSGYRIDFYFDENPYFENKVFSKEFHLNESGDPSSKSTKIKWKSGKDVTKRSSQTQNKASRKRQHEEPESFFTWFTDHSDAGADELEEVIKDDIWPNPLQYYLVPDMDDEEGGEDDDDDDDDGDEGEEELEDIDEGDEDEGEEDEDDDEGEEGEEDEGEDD
UniProt P0CB38: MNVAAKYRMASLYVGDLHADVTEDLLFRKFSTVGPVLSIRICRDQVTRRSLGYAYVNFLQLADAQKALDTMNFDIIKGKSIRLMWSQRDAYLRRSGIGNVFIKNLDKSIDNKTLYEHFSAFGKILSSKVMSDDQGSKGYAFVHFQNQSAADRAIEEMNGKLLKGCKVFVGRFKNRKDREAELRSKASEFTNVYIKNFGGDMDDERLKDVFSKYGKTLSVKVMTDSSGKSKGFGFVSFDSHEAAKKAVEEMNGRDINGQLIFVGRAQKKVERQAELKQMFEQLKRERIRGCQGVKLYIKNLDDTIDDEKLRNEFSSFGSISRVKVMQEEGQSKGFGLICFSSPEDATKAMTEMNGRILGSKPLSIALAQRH
UniProt P02144: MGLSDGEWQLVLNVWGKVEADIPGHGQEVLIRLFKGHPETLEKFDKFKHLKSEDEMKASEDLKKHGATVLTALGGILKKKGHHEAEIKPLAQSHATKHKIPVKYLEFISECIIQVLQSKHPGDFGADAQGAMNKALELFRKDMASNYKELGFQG
UniProt P0DTW1: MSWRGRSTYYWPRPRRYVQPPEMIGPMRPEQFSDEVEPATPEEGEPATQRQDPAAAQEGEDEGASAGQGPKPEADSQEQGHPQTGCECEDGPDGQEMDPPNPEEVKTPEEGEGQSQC
UniProt P04075: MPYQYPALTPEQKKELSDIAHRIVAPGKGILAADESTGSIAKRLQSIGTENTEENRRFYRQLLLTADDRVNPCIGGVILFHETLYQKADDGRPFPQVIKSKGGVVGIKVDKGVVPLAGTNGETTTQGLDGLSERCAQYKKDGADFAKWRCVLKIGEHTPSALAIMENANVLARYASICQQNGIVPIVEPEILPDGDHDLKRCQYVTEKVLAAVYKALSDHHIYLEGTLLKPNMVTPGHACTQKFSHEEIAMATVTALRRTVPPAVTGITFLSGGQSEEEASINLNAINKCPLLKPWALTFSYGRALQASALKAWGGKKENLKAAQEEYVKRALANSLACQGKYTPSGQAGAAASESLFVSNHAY
UniProt P04920: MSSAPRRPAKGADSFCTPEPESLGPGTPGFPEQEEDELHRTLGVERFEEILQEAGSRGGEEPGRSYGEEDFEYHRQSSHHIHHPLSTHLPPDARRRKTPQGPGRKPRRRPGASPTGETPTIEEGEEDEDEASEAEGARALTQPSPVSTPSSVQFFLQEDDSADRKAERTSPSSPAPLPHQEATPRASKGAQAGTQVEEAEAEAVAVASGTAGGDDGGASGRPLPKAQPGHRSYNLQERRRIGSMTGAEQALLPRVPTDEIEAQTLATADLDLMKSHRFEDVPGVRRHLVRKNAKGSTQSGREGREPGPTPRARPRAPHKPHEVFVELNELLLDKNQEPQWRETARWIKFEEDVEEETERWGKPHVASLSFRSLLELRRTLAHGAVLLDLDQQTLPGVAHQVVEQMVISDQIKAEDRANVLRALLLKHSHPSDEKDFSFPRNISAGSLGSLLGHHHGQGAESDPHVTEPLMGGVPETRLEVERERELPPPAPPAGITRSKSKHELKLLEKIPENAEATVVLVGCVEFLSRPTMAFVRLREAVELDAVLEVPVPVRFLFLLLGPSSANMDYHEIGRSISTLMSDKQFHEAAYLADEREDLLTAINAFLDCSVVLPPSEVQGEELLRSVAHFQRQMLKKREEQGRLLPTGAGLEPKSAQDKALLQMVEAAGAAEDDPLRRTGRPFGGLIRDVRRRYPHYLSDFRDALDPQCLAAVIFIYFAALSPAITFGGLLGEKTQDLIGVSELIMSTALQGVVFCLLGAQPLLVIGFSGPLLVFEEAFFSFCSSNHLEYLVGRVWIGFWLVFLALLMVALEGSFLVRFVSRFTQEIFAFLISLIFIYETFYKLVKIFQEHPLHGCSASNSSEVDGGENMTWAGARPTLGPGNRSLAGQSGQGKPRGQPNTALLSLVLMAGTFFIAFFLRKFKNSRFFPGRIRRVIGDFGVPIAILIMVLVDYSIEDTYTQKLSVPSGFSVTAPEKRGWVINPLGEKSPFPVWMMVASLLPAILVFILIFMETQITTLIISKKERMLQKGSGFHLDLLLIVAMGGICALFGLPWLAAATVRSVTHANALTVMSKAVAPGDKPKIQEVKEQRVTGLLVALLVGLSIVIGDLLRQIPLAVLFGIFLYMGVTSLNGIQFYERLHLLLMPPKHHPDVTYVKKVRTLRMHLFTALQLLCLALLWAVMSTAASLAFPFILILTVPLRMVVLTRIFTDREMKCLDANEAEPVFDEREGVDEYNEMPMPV
UniProt P10074: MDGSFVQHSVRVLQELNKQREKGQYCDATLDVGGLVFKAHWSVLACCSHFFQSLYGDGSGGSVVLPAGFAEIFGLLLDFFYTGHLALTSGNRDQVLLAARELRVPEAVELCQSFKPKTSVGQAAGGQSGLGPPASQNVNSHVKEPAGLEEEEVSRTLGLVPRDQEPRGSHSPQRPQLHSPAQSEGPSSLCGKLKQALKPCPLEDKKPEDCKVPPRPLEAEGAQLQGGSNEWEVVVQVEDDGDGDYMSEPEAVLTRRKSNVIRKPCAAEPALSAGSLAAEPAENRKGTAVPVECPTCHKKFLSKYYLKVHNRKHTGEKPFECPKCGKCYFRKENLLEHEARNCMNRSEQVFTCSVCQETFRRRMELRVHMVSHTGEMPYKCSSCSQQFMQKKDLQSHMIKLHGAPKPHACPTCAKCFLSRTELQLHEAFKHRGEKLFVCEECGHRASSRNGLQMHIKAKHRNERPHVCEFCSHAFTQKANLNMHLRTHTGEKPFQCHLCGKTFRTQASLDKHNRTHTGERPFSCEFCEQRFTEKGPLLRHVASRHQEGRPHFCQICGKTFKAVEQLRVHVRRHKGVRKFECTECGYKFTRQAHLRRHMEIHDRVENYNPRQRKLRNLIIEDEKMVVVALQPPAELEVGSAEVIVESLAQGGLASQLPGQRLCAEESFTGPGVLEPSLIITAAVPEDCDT
UniProt P06454: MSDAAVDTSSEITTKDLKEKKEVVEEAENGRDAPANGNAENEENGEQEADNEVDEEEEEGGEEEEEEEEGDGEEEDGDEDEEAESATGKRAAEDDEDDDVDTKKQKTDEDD
UniProt P0C7V8: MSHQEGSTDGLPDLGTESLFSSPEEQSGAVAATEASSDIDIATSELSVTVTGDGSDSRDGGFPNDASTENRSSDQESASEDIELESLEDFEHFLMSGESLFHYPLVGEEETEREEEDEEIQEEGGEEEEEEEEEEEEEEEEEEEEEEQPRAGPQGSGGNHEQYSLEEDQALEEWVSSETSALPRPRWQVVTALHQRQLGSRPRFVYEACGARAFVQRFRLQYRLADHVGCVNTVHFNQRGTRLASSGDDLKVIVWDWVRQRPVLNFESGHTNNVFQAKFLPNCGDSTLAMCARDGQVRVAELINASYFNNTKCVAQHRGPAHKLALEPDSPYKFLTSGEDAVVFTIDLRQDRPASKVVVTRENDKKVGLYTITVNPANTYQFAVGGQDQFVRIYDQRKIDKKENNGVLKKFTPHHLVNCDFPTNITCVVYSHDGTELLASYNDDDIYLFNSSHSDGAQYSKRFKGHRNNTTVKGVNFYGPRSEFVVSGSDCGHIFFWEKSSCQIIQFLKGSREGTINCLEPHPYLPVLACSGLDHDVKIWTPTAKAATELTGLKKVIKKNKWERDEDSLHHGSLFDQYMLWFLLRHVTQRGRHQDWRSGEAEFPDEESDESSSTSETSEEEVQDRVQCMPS

Compound in this experiment: CN[C@@H]1C[C@H]2O[C@@](C)([C@@H]1OC)n1c3ccccc3c3c4c(c5c6ccccc6n2c5c31)C(=O)NC4 [staurosporine]
Description: log2 fold change of tryptic peptide abundance, ligand vs vehicle (limited proteolysis) (log2 ratio); higher = more trypsin-susceptible (destabilized). The following applies: ligand concentration: 20 uM; sample: K562 cleared lysate; digestion: 4 min, 22 C (HT-PELSA RT4min, Orbitrap Astral).
As for “GOT2 (peptide sequence: KAEAQIAAK, peptide start residue: 82) (UniProt P00505)”, the log2 fold change came out at 0.451.
For “UniProt P0DMU8 (peptide sequence: RPRECDSPSYQK, peptide start residue: 18)”, the log2 fold change is -0.207.
With “UniProt P0CG47 (peptide sequence: TITLEVEPSDTIENVKAK, peptide start residue: 12)”, the log2 fold change came to 0.215.
On to “HSPB1 (peptide sequence: AQLGGPEAAKSDETAAK, peptide start residue: 189) (UniProt P04792)”, for which the log2 fold change was -0.113.
“HNRNPC (peptide sequence: MIAGQVLDINLAAEPK, peptide start residue: 74) (UniProt P07910)”: the log2 fold change is -0.171.
For the target “UROS (peptide sequence: FAAIGPTTAR, peptide start residue: 221) (UniProt P10746)”, the log2 fold change was found to be 0.0235.
To “UniProt P0C7V9 (peptide sequence: LHIPVMVDEVVHCLSPQK, peptide start residue: 71)” belongs 0.39; to “PGK2 (peptide sequence: LGDVYVNDAFGTAHR, peptide start residue: 157) (UniProt P07205)”, -0.0826; to “S100A6 (peptide sequence: LMEDLDR, peptide start residue: 56) (UniProt P06703)”, -0.279.
In the case of “ALDH1A1 (peptide sequence: LECGGGPWGNK, peptide start residue: 368) (UniProt P00352)”, the log2 fold change is -0.171.
To “SRC (peptide sequence: GSLLDFLK, peptide start residue: 325) (UniProt P12931)” belongs 0.863.
As for “UMPS (peptide sequence: GLQEVGLPLHR, peptide start residue: 353) (UniProt P11172)”, the log2 fold change came out at 0.34.
Consider “SRGN (peptide sequence: GPMFELLPGESNKIPR, peptide start residue: 54) (UniProt P10124)”, for which the log2 fold change was -0.405.
Regarding “GNAI3 (peptide sequence: MFDVGGQR, peptide start residue: 199) (UniProt P08754)”, the log2 fold change amounted to 0.198.
For “HMGN1 (peptide sequence: TEESPASDEAGEKEAK, peptide start residue: 83) (UniProt P05114)”, the log2 fold change was -0.304.
Then “UniProt P0C860 (peptide sequence: LFLHLEK, peptide start residue: 384)”, with 0.108.
Take “UBL4A (peptide sequence: LTLDDIER, peptide start residue: 130) (UniProt P11441)”: the log2 fold change was 0.353.
For the target “UniProt P04054 (peptide sequence: NAAICFSK, peptide start residue: 123)”, the log2 fold change came to 0.0201.
For the target “UniProt P0DME0 (peptide sequence: LRQPFFQK, peptide start residue: 76)”, the log2 fold change was 0.366.
Then “GLA (peptide sequence: ALLQDKDVIAINQDPLGK, peptide start residue: 309) (UniProt P06280)”, with 0.257.
In the case of “CYC1 (peptide sequence: LFDYFPKPYPNSEAAR, peptide start residue: 171) (UniProt P08574)”, the log2 fold change was -0.216.
Turning to “SLC25A6 (peptide sequence: EQGVLSFWR, peptide start residue: 64) (UniProt P12236)”, the log2 fold change was -0.137.
“CISD3 (peptide sequence: ATQRPPYCDGTHR, peptide start residue: 102) (UniProt P0C7P0)”: the log2 fold change amounted to 1.13.
With “UniProt P0CB38 (peptide sequence: NLDDTIDDEK, peptide start residue: 300)”, the log2 fold change turned out to be 0.0447.
Regarding “UniProt P02144 (peptide sequence: KGHHEAEIK, peptide start residue: 80)”, the log2 fold change is -0.0341.
Turning to “UniProt P0DTW1 (peptide sequence: TPEEGEGQSQC, peptide start residue: 107)”, the log2 fold change stood at 0.0532.
Turning to “UniProt P0CW19 (peptide sequence: ARPCIIPENEEIPR, peptide start residue: 7)”, the log2 fold change is -0.34.
With “CFH (peptide sequence: TTCWDGKLEYPTCAK, peptide start residue: 1216) (UniProt P08603)”, the log2 fold change is -0.0418.
For the target “ALDOA (peptide sequence: AAQEEYVKR, peptide start residue: 323) (UniProt P04075)”, the log2 fold change amounted to 0.175.
Then “ASL (peptide sequence: NPDSLELIR, peptide start residue: 289) (UniProt P04424)”, with 0.222; and “GALT (peptide sequence: YNPLQDEWVLVSAHR, peptide start residue: 34) (UniProt P07902)”, with 0.336; and “SLC4A2 (peptide sequence: TSPSSPAPLPHQEATPR, peptide start residue: 169) (UniProt P04920)”, with -0.47.
Consider “UniProt O96028 (peptide sequence: HAHENDITHFYMLTIDKDR, peptide start residue: 1108)”, for which the log2 fold change turned out to be 0.841.
Consider “PDIA4 (peptide sequence: SKVLEVAK, peptide start residue: 436) (UniProt P13667)”, for which the log2 fold change is 0.593.
To “ZBTB48 (peptide sequence: PHVCEFCSHAFTQK, peptide start residue: 464) (UniProt P10074)” belongs -0.682.
On to “PTMA (peptide sequence: AAEDDEDDDVDTKK, peptide start residue: 91) (UniProt P06454)”, for which the log2 fold change was -0.116.
“ALDOC (peptide sequence: ELSDIALR, peptide start residue: 15) (UniProt P09972)”: the log2 fold change worked out at 0.368.
As for “UniProt P0C7V8 (peptide sequence: QRPVLNFESGHTNNVFQAK, peptide start residue: 260)”, the log2 fold change is -0.151.
For “P4HA1 (peptide sequence: DYIKAEEDKLEQIK, peptide start residue: 44) (UniProt P13674)”, the log2 fold change is 0.463.

The values are drawn from the supplement of paper PMC12819154, “High-throughput peptide-centric local stability assay extends protein–ligand identification to membrane proteins, tissues and bacteria” (Nature Structural & Molecular Biology, 2025).
